Test results as given in paper PMC10814836.
These are yes or no findings as the source states them, for the method shown. In cells and extracts the contact can be indirect. Some binding calls cover weakened binding; strength is not graded here.

Amino acid sequences for entries named in this document (tags omitted).
UniProt P17661: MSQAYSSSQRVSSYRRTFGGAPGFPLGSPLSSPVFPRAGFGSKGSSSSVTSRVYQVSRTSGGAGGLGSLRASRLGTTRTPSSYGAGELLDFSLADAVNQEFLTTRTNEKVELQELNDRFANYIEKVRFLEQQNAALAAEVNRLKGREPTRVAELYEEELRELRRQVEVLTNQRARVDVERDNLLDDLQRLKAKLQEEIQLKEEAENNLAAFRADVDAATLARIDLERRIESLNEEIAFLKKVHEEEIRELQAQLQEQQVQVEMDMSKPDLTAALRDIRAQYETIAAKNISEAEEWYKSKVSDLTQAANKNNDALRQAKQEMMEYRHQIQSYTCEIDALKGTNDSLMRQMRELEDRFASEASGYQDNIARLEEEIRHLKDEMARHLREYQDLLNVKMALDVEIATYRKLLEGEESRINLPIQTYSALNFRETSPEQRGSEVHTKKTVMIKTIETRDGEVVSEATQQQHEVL

Legend:
[1] = biological target: lamin A/C (human (endogenous in primary myoblasts)) (UniProt P02545); assay: proximity ligation; in situ PLA (Duolink) on methanol-fixed human myoblasts under basal (unstretched) conditions; anti-lamin A/C with anti-desmin or anti-plectin 1
[2] = biological target: lamin A/C (human (endogenous in primary myoblasts)) (UniProt P02545); assay: co-IP; lysate of stretched human myoblasts (50 mM Tris-HCl pH 7.5, 150 mM NaCl, 0.1% SDS, 1% NP-40), 500 ug, precipitated with anti-lamin A/C (E1) overnight at 4 °C, protein A/G; Western blot
[3] = biological target: lamin A/C (human (endogenous in primary myoblasts)) (UniProt P02545); assay: proximity ligation; in situ PLA (Duolink) on methanol-fixed human myoblasts after uniaxial cyclic stretching (10% strain, 1 Hz, 4 h); anti-lamin A/C with anti-desmin or anti-plectin 1; 100 nuclei counted per replicate

## desmin (from UniProt P17661 1-470)
[1]
  binding: binds weakly
[2]
  binding: binds
[3]
  binding: binds
